In the assay the target is T1, Secreted Ly6/uPAR-Related Protein 1 (SLURP-1), recombinant (human) (UniProt P55000).
T1 sequence: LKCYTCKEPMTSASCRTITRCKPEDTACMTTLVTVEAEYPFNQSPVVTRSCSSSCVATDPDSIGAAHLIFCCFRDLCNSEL
Nature of the assay: pull-down; SLURP-1 or Oncotag (1 mg/mL) coupled to PureProteome magnetic beads, blocked by 500 mM ethanolamine + 5% non-fat dry milk; tumour lysate (2% Triton X-100, diluted 10 times with TBS: 100 mM TRIS, 150 mM NaCl, pH 8.0) incubated 16 h at 4°C; washes TBS, TBS + 1 M NaCl + 0.5% Triton X-100, TBS + 0.5% Triton X-100; elution 200 mM glycine pH 2.6; Western blot; only the target purified. On the technique in general: Immunoblotting shows a protein as a band on a membrane.

Protein sequences, listed by entry. Tags and fused reporters are not part of them. Residues count along the entry.
UniProt P36544, residues 23-502: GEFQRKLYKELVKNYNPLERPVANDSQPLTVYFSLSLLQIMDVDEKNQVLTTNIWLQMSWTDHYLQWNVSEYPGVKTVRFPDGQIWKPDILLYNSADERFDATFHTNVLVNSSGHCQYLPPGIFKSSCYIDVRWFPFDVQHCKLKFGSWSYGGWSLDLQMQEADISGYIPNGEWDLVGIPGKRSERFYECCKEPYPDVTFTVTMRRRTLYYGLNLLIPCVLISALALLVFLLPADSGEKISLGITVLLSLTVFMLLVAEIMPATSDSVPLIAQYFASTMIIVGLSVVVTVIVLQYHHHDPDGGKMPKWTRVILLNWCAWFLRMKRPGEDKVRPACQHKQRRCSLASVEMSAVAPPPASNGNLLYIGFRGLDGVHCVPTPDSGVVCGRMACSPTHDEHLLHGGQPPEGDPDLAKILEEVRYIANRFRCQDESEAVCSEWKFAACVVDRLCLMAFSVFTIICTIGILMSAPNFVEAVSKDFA

No constants are given. Whether binding was seen depends on the method and setting. In cells and extracts the contact can be indirect. Some binding calls cover weakened binding; strength is not graded here.

Take “epidermal growth factor receptor (EGFR) (from UniProt P00533 25-1210)”: the binding result is reported as “binds”.
In the case of “α7-type nicotinic acetylcholine receptor (α7-nAChR) (from UniProt P36544 23-502)” it was “binds”.

For the origin of these results see article PMC10580074.
